Three molecules from publication PMC3762827 can be followed below.

Assay [1] deals with mRFP-p62 (human) (UniProt Q13501). Kind of assay: co-IP; HEK293 co-transfected with mRFP-p62/GFP-Atg3/Flag-LC3 for 48 h; total cell lysates, IP of each of the three with the correspondent antibody (p62 antibody, GFP-trap, Flag M2), immunoblot. On the technique in general: A western blot detects proteins with antibodies after separation by electrophoresis.
In the next assay the target is T1, GFP-Atg4B (human) (UniProt Q9Y4P1).
T1 sequence: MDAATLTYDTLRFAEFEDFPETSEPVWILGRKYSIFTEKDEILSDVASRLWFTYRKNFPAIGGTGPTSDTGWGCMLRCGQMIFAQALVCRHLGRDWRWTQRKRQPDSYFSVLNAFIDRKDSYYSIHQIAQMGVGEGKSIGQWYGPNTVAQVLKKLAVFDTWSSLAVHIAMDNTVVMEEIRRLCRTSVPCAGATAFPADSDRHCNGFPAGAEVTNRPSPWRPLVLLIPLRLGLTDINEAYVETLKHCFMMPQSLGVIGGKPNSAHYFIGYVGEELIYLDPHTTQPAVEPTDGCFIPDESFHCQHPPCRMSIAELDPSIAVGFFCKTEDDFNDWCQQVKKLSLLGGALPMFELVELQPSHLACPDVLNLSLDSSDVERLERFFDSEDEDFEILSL
Kind of assay: co-IP; HEK293 co-transfected with mRFP-p62/GFP-Atg4B/Flag-LC3 for 48 h; total cell lysates, IP of each of the three with the correspondent antibody (p62 antibody, GFP-trap, Flag M2), immunoblot.

The target in another assay is GFP-Atg3 (human) (UniProt Q9NT62). Description: co-IP; HEK293 co-transfected with mRFP-p62/GFP-Atg3/Flag-LC3 for 48 h; total cell lysates, IP of each of the three with the correspondent antibody (p62 antibody, GFP-trap, Flag M2), immunoblot.
For assay [2], the target named is mRFP-p62 (human) (UniProt Q13501). Description: co-IP; HEK293 co-transfected with mRFP-p62/GFP-Atg4B/Flag-LC3 for 48 h; total cell lysates, IP of each of the three with the correspondent antibody (p62 antibody, GFP-trap, Flag M2), immunoblot.

No constants are given. Whether binding was seen depends on the method and setting. Binding seen in cells or lysates may run through a third protein. For some of these results: Tags and fused reporters may be left off the sequences shown.

Consider “GFP-Atg3 (from UniProt Q9NT62 1-314) (enzyme)”, for which, in the assay with mRFP-p62 (human) [1], the binding result is “no binding”.
As to mRFP-p62 (from UniProt Q13501 1-440), the binding entry with GFP-Atg4B (human) and in the assay with GFP-Atg3 (human) was “no binding” each time.

B1: GFP-Atg4B (enzyme, UniProt Q9Y4P1 1-393)
chain: T1 sequence
On to B1, for which the binding entry with mRFP-p62 (human) [2] is “no binding”.
